{"source": "PubChem BioAssay AID1224827 (NIAID, 2016)", "test": "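Identify regulators of the macrophage TNF-alpha response to bacterial LPS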 (follow-up of hits)", "cell system": "RAW264.7 G9 mouse macrophage reporter clone", "reagents": "single siRNA against mouse genes, 100 nM siRNA", "timing": "siRNA for 2 days, then LPS about 16 h", "challenge": "bacterial lipopolysaccharide (LPS), 10 ng/ml, cells fixed after overnight (about 16 h) stimulation", "detection": "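TNF promoter reporter red fluorescence in nuclei, background subtracted, normalised per plate and to non-targeting control siRNA, as z-scores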", "reading the numbers": "TNF reporter z-score, mean: higher = stronger Tnf promoter reporter signal", "active means": "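Active siRNA: replicate-mean z-score of 2 or more, or -2 or less; no calls for control wells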", "note": "This is an unselected part of about 3,800 reagents. About 2,200 of all reagents (57%) were called active. 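Active means a strong reporter change in either direction; calls are per siRNA, not per gene; qiagen siRNAs gave weaker effects.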 Entries without a mark were called inactive. The numbers tell different reagents against one gene apart. Not all columns of the deposit are shown."}
{"Target gene":"Polr1c (polymerase (RNA) I polypeptide C)","reagent":1,"TNF reporter z-score, mean":"-3.51 (active)"}
{"Target gene":"Polr1c (polymerase (RNA) I polypeptide C)","reagent":2,"TNF reporter z-score, mean":"-4.5 (active)"}
{"Target gene":"Polr1c (polymerase (RNA) I polypeptide C)","reagent":3,"TNF reporter z-score, mean":"-4.56 (active)"}
{"Target gene":"Polr1c (polymerase (RNA) I polypeptide C)","reagent":4,"TNF reporter z-score, mean":"4.73 (active)"}
{"Target gene":"Polr1c (polymerase (RNA) I polypeptide C)","reagent":5,"TNF reporter z-score, mean":1.03}
{"Target gene":"Polr1c (polymerase (RNA) I polypeptide C)","reagent":6,"TNF reporter z-score, mean":-0.501}
{"Target gene":"Hhat (hedgehog acyltransferase)","reagent":1,"TNF reporter z-score, mean":"3.28 (active)"}
{"Target gene":"Hhat (hedgehog acyltransferase)","reagent":2,"TNF reporter z-score, mean":-1.29}
{"Target gene":"Hhat (hedgehog acyltransferase)","reagent":3,"TNF reporter z-score, mean":"-3.98 (active)"}
{"Target gene":"Hhat (hedgehog acyltransferase)","reagent":4,"TNF reporter z-score, mean":"2.69 (active)"}
{"Target gene":"Hhat (hedgehog acyltransferase)","reagent":5,"TNF reporter z-score, mean":0.929}
{"Target gene":"Hhat (hedgehog acyltransferase)","reagent":6,"TNF reporter z-score, mean":"-4.26 (active)"}

Continued; the last 3 above are carried over.
{"Target gene":"Hhat (hedgehog acyltransferase)","reagent":4,"TNF reporter z-score, mean":"2.69 (active)"}
{"Target gene":"Hhat (hedgehog acyltransferase)","reagent":5,"TNF reporter z-score, mean":0.929}
{"Target gene":"Hhat (hedgehog acyltransferase)","reagent":6,"TNF reporter z-score, mean":"-4.26 (active)"}
{"Target gene":"Dnm2 (dynamin 2)","reagent":1,"TNF reporter z-score, mean":1.12}
{"Target gene":"Dnm2 (dynamin 2)","reagent":2,"TNF reporter z-score, mean":"-2.22 (active)"}
{"Target gene":"Dnm2 (dynamin 2)","reagent":3,"TNF reporter z-score, mean":"-4.2 (active)"}
{"Target gene":"Dnm2 (dynamin 2)","reagent":4,"TNF reporter z-score, mean":"4.67 (active)"}
{"Target gene":"Dnm2 (dynamin 2)","reagent":5,"TNF reporter z-score, mean":-0.45}
{"Target gene":"Dnm2 (dynamin 2)","reagent":6,"TNF reporter z-score, mean":-0.653}
{"Target gene":"Atp1a3 (ATPase, Na+/K+ transporting, alpha 3 polypeptide)","reagent":1,"TNF reporter z-score, mean":"-2.74 (active)"}
{"Target gene":"Atp1a3 (ATPase, Na+/K+ transporting, alpha 3 polypeptide)","reagent":2,"TNF reporter z-score, mean":"-3.5 (active)"}
{"Target gene":"Atp1a3 (ATPase, Na+/K+ transporting, alpha 3 polypeptide)","reagent":3,"TNF reporter z-score, mean":"-4.34 (active)"}
{"Target gene":"Atp1a3 (ATPase, Na+/K+ transporting, alpha 3 polypeptide)","reagent":4,"TNF reporter z-score, mean":-0.897}
{"Target gene":"Atp1a3 (ATPase, Na+/K+ transporting, alpha 3 polypeptide)","reagent":5,"TNF reporter z-score, mean":-1.65}
{"Target gene":"Atp1a3 (ATPase, Na+/K+ transporting, alpha 3 polypeptide)","reagent":6,"TNF reporter z-score, mean":-1.3}
